Test results published in paper PMC11707020.
No constants are given. Whether binding was seen depends on the method and setting. Binding seen in cells or lysates may run through a third protein. Some binding calls cover weakened binding; strength is not graded here.

Amino acid sequences for entries named in this document (tags omitted). A change or cut given only in a name is not applied to a line headed by its entry.
UniProt Q9UHP3: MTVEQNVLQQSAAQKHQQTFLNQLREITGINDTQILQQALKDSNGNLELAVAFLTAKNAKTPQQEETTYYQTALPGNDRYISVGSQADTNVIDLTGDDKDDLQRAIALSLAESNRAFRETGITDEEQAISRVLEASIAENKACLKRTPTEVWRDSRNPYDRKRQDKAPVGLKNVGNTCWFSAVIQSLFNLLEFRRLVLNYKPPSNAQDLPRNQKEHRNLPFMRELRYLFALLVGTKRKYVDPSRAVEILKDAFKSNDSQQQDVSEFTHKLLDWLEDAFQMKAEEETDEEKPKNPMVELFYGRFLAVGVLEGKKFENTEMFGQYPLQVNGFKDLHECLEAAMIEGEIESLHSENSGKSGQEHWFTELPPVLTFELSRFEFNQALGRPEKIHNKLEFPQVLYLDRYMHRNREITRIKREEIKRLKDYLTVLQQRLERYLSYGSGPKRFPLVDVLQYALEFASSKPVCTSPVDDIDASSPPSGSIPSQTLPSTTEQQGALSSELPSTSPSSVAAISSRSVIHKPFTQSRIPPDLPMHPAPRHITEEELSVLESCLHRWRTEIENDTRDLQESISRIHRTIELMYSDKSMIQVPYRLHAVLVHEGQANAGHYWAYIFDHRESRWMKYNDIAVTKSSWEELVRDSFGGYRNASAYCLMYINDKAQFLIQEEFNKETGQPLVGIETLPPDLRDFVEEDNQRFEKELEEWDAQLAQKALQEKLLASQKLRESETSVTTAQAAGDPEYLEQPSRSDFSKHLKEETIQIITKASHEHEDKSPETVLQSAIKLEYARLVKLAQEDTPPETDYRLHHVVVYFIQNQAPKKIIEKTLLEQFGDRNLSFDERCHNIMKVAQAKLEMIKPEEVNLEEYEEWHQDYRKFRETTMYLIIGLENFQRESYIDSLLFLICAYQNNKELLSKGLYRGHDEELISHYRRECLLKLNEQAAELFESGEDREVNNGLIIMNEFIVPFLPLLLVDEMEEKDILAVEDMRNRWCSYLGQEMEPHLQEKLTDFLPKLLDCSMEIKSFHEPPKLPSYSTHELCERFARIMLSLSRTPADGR
UniProt P40763: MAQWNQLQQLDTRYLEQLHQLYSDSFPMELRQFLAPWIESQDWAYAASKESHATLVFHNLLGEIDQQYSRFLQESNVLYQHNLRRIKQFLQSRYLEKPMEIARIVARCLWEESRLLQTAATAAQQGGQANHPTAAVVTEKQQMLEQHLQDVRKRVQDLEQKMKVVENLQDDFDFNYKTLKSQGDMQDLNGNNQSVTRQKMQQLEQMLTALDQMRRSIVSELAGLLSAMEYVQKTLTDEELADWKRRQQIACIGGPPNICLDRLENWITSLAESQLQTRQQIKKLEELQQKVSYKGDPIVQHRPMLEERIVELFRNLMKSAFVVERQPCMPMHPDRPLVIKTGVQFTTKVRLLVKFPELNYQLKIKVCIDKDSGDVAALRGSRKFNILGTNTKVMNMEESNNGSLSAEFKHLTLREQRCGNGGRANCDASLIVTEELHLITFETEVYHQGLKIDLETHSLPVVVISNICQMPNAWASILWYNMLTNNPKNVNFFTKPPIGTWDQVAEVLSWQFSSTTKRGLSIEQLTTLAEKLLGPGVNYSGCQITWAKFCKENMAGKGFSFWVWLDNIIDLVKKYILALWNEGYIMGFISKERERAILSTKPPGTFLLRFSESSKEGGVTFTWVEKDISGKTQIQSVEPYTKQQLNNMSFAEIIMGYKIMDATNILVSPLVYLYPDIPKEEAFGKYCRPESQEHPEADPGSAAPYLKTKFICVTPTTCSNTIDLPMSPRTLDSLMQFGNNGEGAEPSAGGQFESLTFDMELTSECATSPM

How the values were obtained:
[1] = molecular target: endogenous USP25 (human (endogenous in NCM460)) (UniProt Q9UHP3); experiment: co-IP; endogenous proteins, NCM460 cells lysed in IP lysis buffer; protein A/G agarose beads, IP-USP25 and IP-STAT3, western blot
[2] = molecular target: Flag-USP25 (ubiquitin-specific protease 25) (UniProt Q9UHP3); experiment: co-IP; 293T cells transfected with Flag-USP25 and HA-STAT3 (wild type or point mutants); IP lysis buffer, protein A/G agarose beads and the indicated antibodies (IP-Flag, IP-HA), western blot; one panel with or without lambda protein phosphatase
[3] = molecular target: HA-STAT3 (signal transducer and activator of transcription 3), wild type (UniProt P40763); experiment: as above
[4] = molecular target: endogenous STAT3 (human (endogenous in NCM460 and 293T)) (UniProt P40763); experiment: co-IP; endogenous proteins, NCM460 cells lysed in IP lysis buffer; protein A/G agarose beads, IP-USP25 and IP-STAT3, western blot

Question: Which binding [1] does the source give for “endogenous STAT3 (from UniProt P40763 1-770)” here?
Answer: The binding was “binds”.

Question: How did the binding [2] turn out when “HA-STAT3-S727A (from UniProt P40763 1-770)” was run?
Answer: Its binding is “binds”.

Question: “HA-STAT3-S521A (from UniProt P40763 1-770)” was tested. Which binding [2] did it give?
Answer: Its binding is “binds”.

Question: How did the binding [3] turn out when “Flag-USP25 (ubiquitin-specific protease 25) (from UniProt Q9UHP3 1-1055) (enzyme)” was run?
Answer: The binding was “binds”.

Question: For “HA-STAT3 (signal transducer and activator of transcription 3), wild type (from UniProt P40763 1-770)”, which binding [2] is on record?
Answer: Its binding is “binds”.

Question: Which binding [4] does the source give for “endogenous USP25 (from UniProt Q9UHP3 1-1055) (enzyme)” here?
Answer: Its binding is “binds”.

Question: With “HA-STAT3-T516A (from UniProt P40763 1-770)” as the substance, how does the binding [2] read?
Answer: The binding was “binds”.
